Results taken from US7994280 (dated 2011).

Test: general procedure: Fmoc solid-phase peptide synthesis; Sieber; diisopropylcarbodiimide (dithio-3,3'-dipropionic acid coupling)
Settings: late stage modification step

Substance: (Mpa)-2-Har-Gly-Asp(tBu)-Trp(Boc)-Pro-Cys(S-tBu)-Sieber
- step yield: >75%
